Our source for the crude mass values is US20030036514A1 (priority 2001, published 2003).

A short description of the data set: general procedure: Boc solid-phase peptide synthesis; p-MBHA resin; dicyclohexylcarbodiimide. The conditions noted are these: whole synthesis, scale 0.5 mmol.

On to Ac-Nle-Asp-His-D-Phe-Cl-Arg-Trp-Lys-NH2, for which the crude mass amounted to 370 mg.
